Data as given in PubChem BioAssay AID686938 (Drosophila RNAi Screening Center, 2013).
The screen tested about 23,000 reagents; shown is an unselected part of those that have a named target and a result. Of all reagents, 75 (0.33%) were called active. 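Raw plate signals without normalisation; calls rest on plate z-scores that were not deposited; ratio present for only 364 wells.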 Names joined by + are all predicted targets of the reagent. The record does not give: the dose of the treatment.

- Test: 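Fly genes required for calcium entry once internal stores are emptied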 (primary screen)
- Cells: Drosophila S2R+ cells
- Knock-down reagent: long dsRNA against Drosophila genes, about 0.25 µg dsRNA per well, roughly 10,000 cells
- Timing: 5 days of knock-down before the calcium assay
- Conditions: thapsigargin (SERCA pump blocker) to empty calcium stores; entry signal taken 4 min after adding it
- Measurement: 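Per-well fluo-4 fluorescence in two replicates, unnormalised, measured in resting cells and 4 min after store depletion by the SERCA blocker thapsigargin; ratio of the two present in few wells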
- Scale: calcium entry signal: higher = stronger calcium signal after store depletion; entry to resting ratio: higher = more calcium entry relative to resting level; resting calcium signal: higher = higher resting calcium signal
- Rule for the call: 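Called when the plate z-score of the entry-to-rest ratio, mean of duplicates, falls below −3; wells with low overall dye signal (Fmax z below −2) or more than five off-targets excluded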
- Meaning of the calls: active = strongly reduced calcium entry; inactive = no strong reduction

Target gene	amplicon	calcium entry signal, replicate 1 (fluorescence units)	calcium entry signal, replicate 2 (fluorescence units)	entry to resting ratio	resting calcium signal, replicate 1 (fluorescence units)	resting calcium signal, replicate 2 (fluorescence units)	outcome
CG10877	DRSC14274	3.89e7	4.06e7		4.16e7	1.94e7	inactive
CG15456	DRSC20527	4.53e7	4.66e7		2.13e7	1.94e7	inactive
CG14325	DRSC14804	1.88e7	2.05e7		1.22e7	3.19e7	inactive
mgr	DRSC16099	3.05e7	2.76e7		1.57e7	1.42e7	inactive
CG31688 + CG31687	DRSC02116	4.22e7	5.48e7		1.94e7	2.52e7	inactive
CG43896	DRSC10288	2.71e7	4.10e7		1.38e7	1.79e7	inactive
CG43896	DRSC10754	2.88e7	3.95e7		1.50e7	1.82e7	inactive
alphaCOP	DRSC08706	2.29e7	2.46e7		1.67e7	1.74e7	inactive
AhcyL1	DRSC08647	3.91e7	4.09e7		2.05e7	1.97e7	inactive
CG32486	DRSC08413	3.87e7	2.62e7		2.55e7	1.13e7	inactive
CG32486	DRSC08488	3.87e7	4.13e7		1.97e7	1.78e7	inactive
l(3)mbt	DRSC16983	3.14e7	4.38e7		1.47e7	1.90e7	inactive
CG14610 + asRNA:CR42738	DRSC12554	4.30e7	4.44e7		2.13e7	2.14e7	inactive
CG42367	DRSC21388	4.12e7	3.73e7		2.38e7	1.89e7	inactive
BobA	DRSC09889	5.09e7	6.76e7		2.37e7	2.66e7	inactive
Hsc70-1	DRSC11185	2.26e7	2.27e7		1.29e7	1.14e7	inactive
lncRNA:CR32658	DRSC19402	3.32e7	4.94e7		1.63e7	2.23e7	inactive
CG31706	DRSC22704	3.74e7	3.98e7		2.02e7	1.72e7	inactive
TH1	DRSC20289	4.05e7	3.81e7		1.74e7	1.92e7	inactive
Lpin	DRSC07241	4.63e7	3.16e7		1.93e7	1.56e7	inactive
Cyp6a16Psi (retired record)	DRSC03307	2.39e7	2.38e7		1.27e7	1.20e7	inactive
CG1785	DRSC18139	2.19e7	2.69e7		1.19e7	1.36e7	inactive
CG4884	DRSC15671	3.63e7	4.13e7		1.79e7	1.64e7	inactive
Bap111	DRSC18419	2.66e7	4.12e7		1.76e7	2.45e7	active
ND-20L	DRSC15414	3.08e7	4.55e7		1.60e7	1.98e7	inactive
hfw	DRSC18506	3.85e7	4.49e7	2.1	1.82e7	1.80e7	inactive
Dna2	DRSC18254	4.35e7	3.71e7		1.85e7	1.67e7	inactive
Kul	DRSC15404	4.21e7	4.18e7		2.15e7	2.10e7	inactive
wntD	DRSC16423	3.22e7	5.67e7		1.64e7	8.26e7	inactive
TrpRS-m	DRSC10848	3.77e7	3.77e7		1.68e7	2.65e7	inactive
CG4438	DRSC02746	3.18e7	5.28e7		1.65e7	2.27e7	inactive
CG12691	DRSC17880	3.14e7	3.83e7		1.52e7	1.75e7	inactive
CG11723	DRSC00324	3.95e7			1.68e7		inactive
Trp1	DRSC03465	2.79e7	4.33e7		1.29e7	1.93e7	inactive
Icmt	DRSC09834	3.01e7	4.63e7		1.56e7	2.09e7	inactive
CG5639	DRSC15851	1.83e7	3.17e7		9.78e6	1.37e7	inactive
Sod3	DRSC07324	2.75e7	3.57e7		1.29e7	1.62e7	inactive
Tango2	DRSC19394	3.88e7	4.57e7		1.88e7	2.21e7	inactive
Tango2	DRSC21526	4.76e7	3.17e7		2.88e7	1.62e7	inactive
crn	DRSC18184	2.15e7	1.77e7	1.3	1.63e7	1.42e7	inactive
crn	DRSC18185	2.46e7	2.78e7	1.5	1.59e7	1.81e7	inactive
crn	DRSC18755	1.87e7	2.31e7		1.39e7	1.44e7	inactive
TrissinR	DRSC02334	3.89e7	3.33e7		1.74e7	1.64e7	inactive
TrissinR	DRSC02335	4.10e7	4.05e7		2.00e7	1.93e7	inactive
TrissinR	DRSC02336	2.83e7	2.45e7		1.39e7	1.21e7	inactive
Osi9	DRSC12278	4.43e7	2.35e7		2.24e7	1.20e7	inactive
GC	DRSC08396	3.72e7	5.33e7		1.85e7	2.28e7	inactive
CG13170	DRSC06298	2.45e7	3.44e7		1.34e7	1.62e7	inactive
CG10062	DRSC05960	3.04e7	2.53e7		1.41e7	1.30e7	inactive
CG10062	DRSC22535	2.38e7	2.43e7		1.17e7	1.12e7	inactive
aqz + CG9837	DRSC12709	3.96e7	4.04e7		1.86e7	2.13e7	inactive
narya	DRSC19439	4.01e7	4.07e7		1.80e7	1.67e7	inactive
CG8507	DRSC16435	3.64e7	3.65e7		1.88e7	1.88e7	inactive
CG32284	DRSC08025	4.08e7	3.58e7		1.66e7	1.50e7	inactive
Npc2d	DRSC14551	2.81e7	2.20e7		1.42e7	1.18e7	inactive
CG10562	DRSC14257	3.20e7	3.03e7		1.39e7	1.51e7	inactive
CG14744	DRSC06480	3.54e7	3.72e7		1.67e7	1.72e7	inactive
CG1463	DRSC19603	3.95e7	3.84e7		1.74e7	1.77e7	inactive

Active calls, of those listed so far:
Target gene	amplicon	calcium entry signal, replicate 1 (fluorescence units)	calcium entry signal, replicate 2 (fluorescence units)	entry to resting ratio	resting calcium signal, replicate 1 (fluorescence units)	resting calcium signal, replicate 2 (fluorescence units)	outcome
Bap111	DRSC18419	2.66e7	4.12e7		1.76e7	2.45e7	active
